Assay results reported in the supplement of paper PMC10849652.
Some of the results follow.

The chains behind the UniProt entries cited, without tags or fusion partners. Where a name states a change or a piece, a line headed by the entry shows the natural chain unless it says otherwise.
UniProt Q8NBU5: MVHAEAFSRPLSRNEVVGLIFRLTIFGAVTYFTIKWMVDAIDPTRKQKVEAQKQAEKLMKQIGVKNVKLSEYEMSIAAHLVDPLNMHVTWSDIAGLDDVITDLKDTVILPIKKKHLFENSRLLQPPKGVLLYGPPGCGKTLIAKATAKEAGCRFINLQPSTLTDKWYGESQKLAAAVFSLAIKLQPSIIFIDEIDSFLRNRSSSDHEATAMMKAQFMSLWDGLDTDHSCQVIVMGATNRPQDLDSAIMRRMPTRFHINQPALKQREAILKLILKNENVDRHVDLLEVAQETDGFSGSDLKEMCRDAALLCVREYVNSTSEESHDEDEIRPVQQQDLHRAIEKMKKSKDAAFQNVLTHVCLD
UniProt Q9HD20: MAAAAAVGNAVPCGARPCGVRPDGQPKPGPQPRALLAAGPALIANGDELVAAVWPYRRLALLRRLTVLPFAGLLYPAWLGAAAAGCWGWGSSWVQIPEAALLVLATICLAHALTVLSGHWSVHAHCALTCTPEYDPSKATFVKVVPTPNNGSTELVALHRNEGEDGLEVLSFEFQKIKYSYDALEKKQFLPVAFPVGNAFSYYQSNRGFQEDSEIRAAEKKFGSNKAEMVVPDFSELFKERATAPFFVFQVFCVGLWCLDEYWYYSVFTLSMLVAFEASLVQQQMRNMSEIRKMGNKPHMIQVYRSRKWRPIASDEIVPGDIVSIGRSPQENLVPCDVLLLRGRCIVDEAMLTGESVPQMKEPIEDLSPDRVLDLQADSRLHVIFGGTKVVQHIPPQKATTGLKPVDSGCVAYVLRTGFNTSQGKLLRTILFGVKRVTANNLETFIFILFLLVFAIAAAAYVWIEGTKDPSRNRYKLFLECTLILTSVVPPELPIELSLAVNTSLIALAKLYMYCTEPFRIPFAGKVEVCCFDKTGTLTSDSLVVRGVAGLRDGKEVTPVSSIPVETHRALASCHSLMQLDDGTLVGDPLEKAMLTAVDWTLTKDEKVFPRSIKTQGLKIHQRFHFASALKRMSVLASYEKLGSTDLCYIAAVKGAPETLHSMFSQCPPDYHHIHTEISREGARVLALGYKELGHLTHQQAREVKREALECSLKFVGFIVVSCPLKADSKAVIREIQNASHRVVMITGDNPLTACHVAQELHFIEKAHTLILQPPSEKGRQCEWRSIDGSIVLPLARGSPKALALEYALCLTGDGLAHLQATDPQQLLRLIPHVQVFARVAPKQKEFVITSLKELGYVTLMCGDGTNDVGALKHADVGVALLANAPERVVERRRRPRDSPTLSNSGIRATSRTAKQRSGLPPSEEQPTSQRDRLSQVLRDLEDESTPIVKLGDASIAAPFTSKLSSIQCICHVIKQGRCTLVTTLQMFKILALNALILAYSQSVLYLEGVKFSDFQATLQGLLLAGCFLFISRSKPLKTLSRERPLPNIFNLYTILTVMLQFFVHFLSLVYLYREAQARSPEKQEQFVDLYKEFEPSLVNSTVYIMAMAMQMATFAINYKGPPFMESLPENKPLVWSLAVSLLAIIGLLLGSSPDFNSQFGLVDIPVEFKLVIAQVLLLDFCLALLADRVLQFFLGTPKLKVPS
UniProt O75787, whole entry, looked up: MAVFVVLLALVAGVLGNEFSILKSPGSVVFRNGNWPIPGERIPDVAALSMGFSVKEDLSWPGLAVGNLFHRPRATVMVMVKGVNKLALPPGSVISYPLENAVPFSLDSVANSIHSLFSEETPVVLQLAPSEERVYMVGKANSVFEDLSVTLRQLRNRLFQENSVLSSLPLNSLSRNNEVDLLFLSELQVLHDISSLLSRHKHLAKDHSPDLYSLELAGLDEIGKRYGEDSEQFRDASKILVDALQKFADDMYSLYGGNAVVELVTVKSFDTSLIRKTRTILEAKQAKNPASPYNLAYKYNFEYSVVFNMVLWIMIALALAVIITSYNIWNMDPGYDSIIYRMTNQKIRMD
UniProt P18859: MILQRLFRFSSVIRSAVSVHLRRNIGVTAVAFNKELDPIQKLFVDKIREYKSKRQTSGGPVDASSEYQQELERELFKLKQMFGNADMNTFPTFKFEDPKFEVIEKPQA
UniProt Q9NY97: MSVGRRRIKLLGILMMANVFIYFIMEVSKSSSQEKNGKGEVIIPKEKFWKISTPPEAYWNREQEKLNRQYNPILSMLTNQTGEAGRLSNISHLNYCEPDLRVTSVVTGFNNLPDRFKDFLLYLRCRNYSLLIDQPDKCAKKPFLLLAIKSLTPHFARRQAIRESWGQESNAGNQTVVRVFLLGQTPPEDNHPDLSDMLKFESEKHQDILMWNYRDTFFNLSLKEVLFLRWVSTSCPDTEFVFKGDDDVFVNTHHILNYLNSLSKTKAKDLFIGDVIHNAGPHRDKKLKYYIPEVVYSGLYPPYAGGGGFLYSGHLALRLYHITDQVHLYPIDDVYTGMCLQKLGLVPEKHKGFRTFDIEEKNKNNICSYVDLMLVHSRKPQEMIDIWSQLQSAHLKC
UniProt P06576, whole entry, looked up: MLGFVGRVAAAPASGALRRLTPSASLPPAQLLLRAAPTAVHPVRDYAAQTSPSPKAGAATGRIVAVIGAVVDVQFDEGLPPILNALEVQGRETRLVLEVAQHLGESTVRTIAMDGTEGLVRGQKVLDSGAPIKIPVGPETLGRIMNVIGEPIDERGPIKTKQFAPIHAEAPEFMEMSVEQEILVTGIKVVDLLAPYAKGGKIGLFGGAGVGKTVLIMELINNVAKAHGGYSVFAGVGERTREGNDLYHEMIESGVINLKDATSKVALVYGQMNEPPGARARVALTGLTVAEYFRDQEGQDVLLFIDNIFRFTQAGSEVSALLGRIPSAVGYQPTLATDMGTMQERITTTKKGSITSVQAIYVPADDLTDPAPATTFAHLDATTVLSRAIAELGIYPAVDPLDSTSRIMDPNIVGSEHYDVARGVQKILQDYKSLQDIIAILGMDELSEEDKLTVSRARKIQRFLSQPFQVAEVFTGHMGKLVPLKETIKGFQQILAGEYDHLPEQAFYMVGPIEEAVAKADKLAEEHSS
UniProt Q04656: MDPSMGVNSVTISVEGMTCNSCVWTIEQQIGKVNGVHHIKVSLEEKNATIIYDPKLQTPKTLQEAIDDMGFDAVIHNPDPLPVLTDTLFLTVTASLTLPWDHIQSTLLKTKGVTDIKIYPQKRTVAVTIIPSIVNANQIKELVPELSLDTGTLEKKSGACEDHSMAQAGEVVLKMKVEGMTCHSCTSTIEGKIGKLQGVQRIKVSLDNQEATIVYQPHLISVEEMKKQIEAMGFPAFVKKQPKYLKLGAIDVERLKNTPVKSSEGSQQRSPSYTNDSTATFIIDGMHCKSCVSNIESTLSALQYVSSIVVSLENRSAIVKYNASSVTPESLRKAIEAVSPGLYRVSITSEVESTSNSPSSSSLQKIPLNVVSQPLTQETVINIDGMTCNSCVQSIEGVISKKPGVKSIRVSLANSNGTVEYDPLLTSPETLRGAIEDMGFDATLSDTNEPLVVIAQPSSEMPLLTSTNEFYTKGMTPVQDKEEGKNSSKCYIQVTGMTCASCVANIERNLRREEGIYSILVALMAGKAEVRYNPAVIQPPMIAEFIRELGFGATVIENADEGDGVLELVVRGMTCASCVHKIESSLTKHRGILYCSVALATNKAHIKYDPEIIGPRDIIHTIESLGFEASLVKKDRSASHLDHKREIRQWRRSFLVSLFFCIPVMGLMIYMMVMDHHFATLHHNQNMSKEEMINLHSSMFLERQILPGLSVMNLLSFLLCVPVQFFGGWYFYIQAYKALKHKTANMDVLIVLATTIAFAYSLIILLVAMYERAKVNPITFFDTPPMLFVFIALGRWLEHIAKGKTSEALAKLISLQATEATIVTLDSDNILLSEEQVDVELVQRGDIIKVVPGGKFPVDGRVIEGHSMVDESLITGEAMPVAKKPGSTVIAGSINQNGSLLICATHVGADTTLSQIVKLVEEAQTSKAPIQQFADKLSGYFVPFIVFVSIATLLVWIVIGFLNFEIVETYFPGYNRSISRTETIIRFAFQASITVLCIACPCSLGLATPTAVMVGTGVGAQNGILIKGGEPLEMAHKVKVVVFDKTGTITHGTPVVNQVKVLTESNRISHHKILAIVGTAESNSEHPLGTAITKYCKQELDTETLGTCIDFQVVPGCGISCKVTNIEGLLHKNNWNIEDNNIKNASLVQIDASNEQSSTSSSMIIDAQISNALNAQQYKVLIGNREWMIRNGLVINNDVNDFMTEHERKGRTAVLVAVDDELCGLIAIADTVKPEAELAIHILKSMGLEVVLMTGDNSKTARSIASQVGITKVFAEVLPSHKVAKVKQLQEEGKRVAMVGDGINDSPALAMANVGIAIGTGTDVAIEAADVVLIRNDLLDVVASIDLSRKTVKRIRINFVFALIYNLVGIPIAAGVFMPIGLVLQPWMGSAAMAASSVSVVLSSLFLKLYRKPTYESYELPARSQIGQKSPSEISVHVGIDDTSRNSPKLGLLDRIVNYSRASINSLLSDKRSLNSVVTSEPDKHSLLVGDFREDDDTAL
UniProt Q13733, whole entry, looked up: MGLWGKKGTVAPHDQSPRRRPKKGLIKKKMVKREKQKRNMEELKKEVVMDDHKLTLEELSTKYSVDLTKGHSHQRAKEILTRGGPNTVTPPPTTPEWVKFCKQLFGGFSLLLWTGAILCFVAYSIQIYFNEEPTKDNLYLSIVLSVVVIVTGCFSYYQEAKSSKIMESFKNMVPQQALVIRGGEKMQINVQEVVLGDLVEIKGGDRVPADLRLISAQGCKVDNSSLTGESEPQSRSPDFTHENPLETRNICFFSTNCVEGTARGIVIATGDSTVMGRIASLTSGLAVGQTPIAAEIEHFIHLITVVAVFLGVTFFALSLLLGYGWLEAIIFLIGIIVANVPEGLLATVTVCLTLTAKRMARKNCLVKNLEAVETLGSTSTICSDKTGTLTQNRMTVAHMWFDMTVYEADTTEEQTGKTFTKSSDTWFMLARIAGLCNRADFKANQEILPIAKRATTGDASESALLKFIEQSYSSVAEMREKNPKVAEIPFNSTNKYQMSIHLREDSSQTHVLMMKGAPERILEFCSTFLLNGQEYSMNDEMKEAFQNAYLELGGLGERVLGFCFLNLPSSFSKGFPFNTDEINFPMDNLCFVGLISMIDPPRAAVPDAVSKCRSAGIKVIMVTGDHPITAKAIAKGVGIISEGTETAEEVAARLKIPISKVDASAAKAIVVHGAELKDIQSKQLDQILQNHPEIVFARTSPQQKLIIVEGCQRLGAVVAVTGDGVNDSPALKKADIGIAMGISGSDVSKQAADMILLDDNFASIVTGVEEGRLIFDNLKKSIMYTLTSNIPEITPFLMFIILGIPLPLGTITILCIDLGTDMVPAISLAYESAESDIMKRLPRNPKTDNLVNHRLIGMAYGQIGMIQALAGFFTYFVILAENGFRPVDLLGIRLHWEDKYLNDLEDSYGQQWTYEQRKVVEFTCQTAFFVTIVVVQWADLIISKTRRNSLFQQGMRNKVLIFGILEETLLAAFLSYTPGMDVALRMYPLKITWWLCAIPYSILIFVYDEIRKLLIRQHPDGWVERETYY
UniProt P54709, whole entry, looked up: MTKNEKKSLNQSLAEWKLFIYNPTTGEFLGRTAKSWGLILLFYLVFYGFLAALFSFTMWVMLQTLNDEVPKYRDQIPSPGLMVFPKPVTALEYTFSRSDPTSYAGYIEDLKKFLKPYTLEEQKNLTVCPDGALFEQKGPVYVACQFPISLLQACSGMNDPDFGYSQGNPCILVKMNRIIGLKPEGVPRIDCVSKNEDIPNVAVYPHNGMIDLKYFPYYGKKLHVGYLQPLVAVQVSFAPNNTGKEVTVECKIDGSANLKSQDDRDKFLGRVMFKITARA
UniProt P21281, whole entry, looked up: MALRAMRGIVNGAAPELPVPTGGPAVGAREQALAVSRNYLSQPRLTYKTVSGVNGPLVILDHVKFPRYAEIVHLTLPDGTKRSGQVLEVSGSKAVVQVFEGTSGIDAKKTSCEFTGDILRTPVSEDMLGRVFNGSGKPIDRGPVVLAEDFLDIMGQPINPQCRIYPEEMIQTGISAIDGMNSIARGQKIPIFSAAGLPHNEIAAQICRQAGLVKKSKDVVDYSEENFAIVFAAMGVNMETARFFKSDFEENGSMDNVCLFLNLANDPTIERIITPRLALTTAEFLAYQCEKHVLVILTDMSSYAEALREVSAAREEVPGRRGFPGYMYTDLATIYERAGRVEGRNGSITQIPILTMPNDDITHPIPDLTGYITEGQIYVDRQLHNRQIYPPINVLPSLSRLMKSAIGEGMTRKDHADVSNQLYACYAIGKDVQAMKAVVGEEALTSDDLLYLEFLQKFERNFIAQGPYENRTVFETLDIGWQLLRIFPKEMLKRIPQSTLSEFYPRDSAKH
UniProt Q9H1Y0: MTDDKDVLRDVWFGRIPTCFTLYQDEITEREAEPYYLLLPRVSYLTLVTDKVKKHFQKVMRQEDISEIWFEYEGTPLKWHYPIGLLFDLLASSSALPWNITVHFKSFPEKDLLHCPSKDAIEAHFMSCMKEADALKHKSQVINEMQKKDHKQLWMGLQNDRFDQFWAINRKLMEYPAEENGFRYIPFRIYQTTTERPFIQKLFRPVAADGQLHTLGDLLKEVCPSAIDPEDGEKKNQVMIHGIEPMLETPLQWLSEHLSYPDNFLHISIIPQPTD

Key:
Experiment in all cases: log2 fold change, soluble protein after heating vs DMSO (PISA); higher = thermal stabilisation; K562 lysate, 10 uM; active = over 0.2 and 3.5 SD of the protein, either way, in both replicates (recomputed)
[1] = compound: CS(=O)(=O)CCNCc1ccc(-c2ccc3ncnc(Nc4ccc(OCc5cccc(F)c5)c(Cl)c4)c3c2)o1 [lapatinib]
In short: (§1)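 Soluble protein was defined as the supernatant remaining after 21,000xg for 90 min, following pooling of heated aliquots and adjustment to 0.5% NP-40 at 4°C. Before that, crude K562 extract at 1 mg/mL protein in PBS pH 7.4 with 1 mM MgCl2 was treated with 10 μM compound for 30 min and heated for 3 min across 48°C-58°C. Quantification used TMTpro 16plex LC-MS/MS with channel sums equalised, and values are log-two fold changes in thermal stability relative to solvent controls from duplicates.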

[2] = compound: CS(=O)(=O)N1CCN(Cc2cc3nc(-c4cccc5[nH]ncc45)nc(N4CCOCC4)c3s2)CC1 [pictilisib]
In short: as §1

[3] = compound: C[C@@H](Oc1cc(-c2cnn(C3CCNCC3)c2)cnc1N)c1c(Cl)ccc(F)c1Cl [crizotinib]
In short: as §1

[4] = compound: C[C@H](C1=CC=C(C=C1)C(=O)NC2=C3C=CNC3=NC=C2)N
In short: as §1

[5] = compound: C[C@H](Nc1ncnc2nc[nH]c12)c1cc2cccc(Cl)c2c(=O)n1-c1ccccc1 [duvelisib]
In short: as §1

[6] = compound: Cc1cc(Nc2cc(CN3CCOCC3)c3nc(C)c(Cc4ccc(Cl)cc4F)n3n2)n[nH]1 [gandotinib]
In short: as §1

[7] = compound: Cc1cc(Nc2cc(N3CCN(C)CC3)nc(Sc3ccc(NC(=O)C4CC4)cc3)n2)n[nH]1 [tozasertib]
In short: as §1

[8] = compound: Cc1ccc(-n2nc(C(C)(C)C)cc2NC(=O)Nc2ccc(OCCN3CCOCC3)c3ccccc23)cc1 [doramapimod]
In short: as §1

[9] = compound: Cc1ccc(NC(=O)c2ccc(CN3CC[C@H](N(C)C)C3)c(C(F)(F)F)c2)cc1Nc1nccc(-c2cncnc2)n1 [bafetinib]
In short: as §1

[10] = compound: Cc1cccc(CC(=O)N2CCc3c2ccc(-c2cn(C)c4ncnc(N)c24)c3F)n1
In short: as §1

[11] = compound: Cc1cn(-c2cc(NC(=O)c3ccc(C)c(Nc4nccc(-c5cccnc5)n4)c3)cc(C(F)(F)F)c2)cn1 [nilotinib]
In short: as §1

[12] = compound: Cc1nc(Nc2n[nH]c3c2CN(C(=O)N[C@H](CN(C)C)c2ccccc2)C3(C)C)c2sccc2n1
In short: as §1

[13] = compound: Cc1nc(Nc2ncc(C(=O)Nc3c(C)cccc3Cl)s2)cc(N2CCN(CCO)CC2)n1 [dasatinib]
In short: as §1

[14] = compound: Cc1ncc(-c2ccnc(Nc3ccc(S(C)(=O)=O)cc3)n2)n1C(C)C
In short: as §1

[15] = compound: Cn1cc(-c2ccc3c(c2)CCN3C(=O)Cc2cccc(C(F)(F)F)c2)c2c(N)ncnc21
In short: as §1

[16] = compound: Cn1cc(CNCC2CCN(c3ncc(C(=O)NO)cn3)CC2)c2ccccc21 [quisinostat]
In short: as §1

[17] = compound: Cn1cncc1[C@@](N)(c1ccc(Cl)cc1)c1ccc2c(c1)c(-c1cccc(Cl)c1)cc(=O)n2C [tipifarnib]
In short: as §1

[18] = compound: NC(=O)Nc1cc(-c2cccc(F)c2)sc1C(=O)N[C@H]1CCCNC1
In short: as §1

[19] = compound: NC(=O)c1cnc(N[C@@H]2CCCC[C@@H]2N)nc1Nc1cccc(-n2nccn2)c1
In short: as §1

[20] = compound: NC1(c2ccc(-c3nc4ccn5c(=O)[nH]nc5c4cc3-c3ccccc3)cc2)CCC1
In short: as §1

| Target | log2 fold change [1] | log2 fold change [2] | log2 fold change [3] | log2 fold change [4] | log2 fold change [5] | log2 fold change [6] | log2 fold change [7] | log2 fold change [8] | log2 fold change [9] | log2 fold change [10] | log2 fold change [11] | log2 fold change [12] | log2 fold change [13] | log2 fold change [14] | log2 fold change [15] | log2 fold change [16] | log2 fold change [17] | log2 fold change [18] | log2 fold change [19] | log2 fold change [20] |
| --- | --- | --- | --- | --- | --- | --- | --- | --- | --- | --- | --- | --- | --- | --- | --- | --- | --- | --- | --- | --- |
| ATG4A (UniProt Q8WYN0) | inactive: -0.017 | inactive: -0.02 | inactive: -0.033 | inactive: -0.061 | inactive: -0.009 | inactive: -0.025 | inactive: 0.044 | inactive: 0.008 | inactive: -0.014 | inactive: 0.063 | inactive: -0.022 | inactive: 0.018 | inactive: -0.064 | inactive: 0.037 | inactive: -0.038 | inactive: -0.042 | inactive: -0.015 | inactive: 0.096 | inactive: -0.02 | inactive: 0 |
| ATAD1 (UniProt Q8NBU5) | inactive: -0.158 | inactive: 0.012 | inactive: -0.022 | inactive: -0.081 | inactive: -0.051 | active: 0.386 | inactive: 0.017 | inactive: 0.015 | inactive: -0.008 | inactive: 0.012 | inactive: 0.073 | inactive: -0.015 | inactive: 0.001 | inactive: -0.153 | inactive: 0.039 | inactive: -0.072 | inactive: -0.072 | inactive: -0.001 | inactive: 0.027 | inactive: -0.031 |
| ATP13A1 (UniProt Q9HD20) | inactive: -0.115 | inactive: -0.011 | inactive: 0.123 | inactive: 0.047 | inactive: -0.004 | inactive: -0.073 | inactive: 0.068 | inactive: -0.053 | inactive: -0.033 | inactive: 0.043 | inactive: 0.009 | inactive: 0.004 | inactive: 0.102 | inactive: 0.003 | inactive: 0.005 | inactive: 0.001 | inactive: -0.109 | inactive: -0.044 | inactive: 0.07 | inactive: 0.065 |
| ATP6AP2 (UniProt O75787) | inactive: 0.029 | inactive: -0.044 | inactive: -0.003 | inactive: 0.019 | inactive: 0.001 | inactive: -0.112 | inactive: -0.005 | inactive: 0.01 | inactive: -0.003 | inactive: -0.064 | inactive: -0.014 | inactive: -0.011 | inactive: 0.008 | inactive: -0.018 | inactive: 0.004 | inactive: 0.012 | inactive: -0.03 | inactive: -0.016 | inactive: -0.017 | inactive: 0.011 |
| ATP5PF isoform 2 (UniProt P18859) | inactive: 0.04 | inactive: -0.088 | inactive: 0.054 | active: 0.591 | inactive: -0.021 | inactive: -0.185 | inactive: -0.018 | inactive: -0.083 | inactive: 0.221 | inactive: -0.19 | inactive: 0.059 | inactive: 0.046 | inactive: 0.026 | inactive: 0.164 | inactive: -0.013 | inactive: 0.11 | inactive: 0.066 | inactive: -0.058 | inactive: -0.029 | inactive: -0.051 |
| B3GNT2 (UniProt Q9NY97) | inactive: 0.036 | inactive: -0.009 | inactive: 0.005 | inactive: -0.003 | inactive: -0.009 | inactive: 0.016 | inactive: -0.008 | inactive: -0.029 | inactive: 0.018 | inactive: 0.078 | inactive: 0.034 | inactive: -0.1 | inactive: -0.02 | inactive: -0.036 | inactive: 0.059 | inactive: 0.014 | inactive: -0.027 | inactive: 0.016 | inactive: -0.046 | inactive: 0.084 |
| ASPH (UniProt Q12797) | inactive: -0.035 | inactive: -0.012 | inactive: -0.025 | inactive: 0.048 | inactive: -0.022 | inactive: -0.04 | inactive: 0.037 | inactive: 0.008 | inactive: 0.029 | inactive: 0.005 | inactive: -0.033 | inactive: -0.025 | inactive: 0.089 | inactive: 0.011 | inactive: -0.019 | inactive: -0.02 | inactive: 0.004 | inactive: -0.005 | inactive: -0.009 | inactive: -0.013 |
| B3GLCT (UniProt Q6Y288) | inactive: -0.016 | inactive: -0.013 | inactive: 0.019 | inactive: -0.058 | inactive: -0.059 | inactive: 0.034 | inactive: 0.002 | inactive: 0.006 | inactive: 0.043 | inactive: 0.021 | inactive: 0.014 | inactive: -0.071 | inactive: -0.002 | inactive: 0.058 | inactive: -0.013 | inactive: -0.051 | inactive: 0.125 | inactive: 0.031 | inactive: 0.008 | inactive: 0.002 |
| ATP5F1B (UniProt P06576) | inactive: -0.022 | inactive: -0.006 | inactive: 0.025 | inactive: -0.005 | inactive: 0.008 | inactive: 0.015 | inactive: -0.021 | inactive: -0.018 | inactive: 0.02 | inactive: -0.008 | inactive: 0.006 | inactive: -0.018 | inactive: -0.004 | inactive: -0.01 | inactive: -0.017 | inactive: 0.014 | inactive: -0.003 | inactive: -0.002 | inactive: 0.001 | inactive: 0.017 |
| ATP7A isoform 3 (UniProt Q04656) | inactive: -0.034 | inactive: -0.029 | inactive: -0.005 | inactive: -0.035 | inactive: -0.007 | inactive: -0.002 | inactive: 0.011 | inactive: 0.008 | inactive: 0.022 | inactive: 0.012 | inactive: 0.011 | inactive: 0.065 | inactive: -0.007 | inactive: 0.036 | inactive: 0.045 | inactive: -0.041 | inactive: -0.002 | inactive: 0.007 | inactive: 0.01 | inactive: 0.012 |
| ATP1A4 (UniProt Q13733) | inactive: -0.039 | inactive: -0.007 | inactive: 0.027 | inactive: -0.034 | inactive: 0.04 | inactive: 0.022 | inactive: -0.023 | inactive: -0.017 | inactive: 0.035 | inactive: 0.028 | inactive: -0.005 | inactive: -0.014 | inactive: -0.011 | inactive: -0.008 | inactive: 0.021 | inactive: 0.064 | inactive: 0.021 | inactive: -0.036 | inactive: -0.004 | inactive: 0.006 |
| ATP1B3 (UniProt P54709) | inactive: -0.004 | inactive: -0.018 | inactive: 0.027 | inactive: -0.028 | inactive: 0.016 | inactive: 0.031 | inactive: -0.008 | inactive: -0.009 | inactive: 0.045 | inactive: -0.032 | inactive: 0.006 | inactive: 0.005 | inactive: 0.02 | inactive: 0.019 | inactive: -0.035 | inactive: -0.005 | inactive: 0.007 | inactive: -0.004 | inactive: -0.023 | inactive: 0.017 |
| ATP6AP1 (UniProt Q15904) | inactive: -0.044 | inactive: -0.042 | inactive: 0.051 | inactive: -0.076 | inactive: 0.044 | inactive: 0.035 | inactive: -0.039 | inactive: -0.015 | inactive: 0.022 | inactive: 0.081 | inactive: 0.004 | inactive: 0.001 | inactive: 0.016 | inactive: -0.067 | inactive: -0.031 | inactive: 0.082 | inactive: -0.036 | inactive: 0.007 | inactive: 0.02 | inactive: -0.036 |
| ATP5F1A (UniProt P25705) | inactive: -0.025 | inactive: -0.003 | inactive: 0.019 | inactive: 0.03 | inactive: 0.008 | inactive: -0.001 | inactive: 0.007 | inactive: -0.003 | inactive: 0.014 | inactive: -0.027 | inactive: -0.002 | inactive: -0.017 | inactive: -0.032 | inactive: -0.016 | inactive: 0.014 | inactive: -0.02 | inactive: 0.002 | inactive: -0.004 | inactive: -0.004 | inactive: -0.002 |
| ATP6V1B2 (UniProt P21281) | inactive: 0.012 | inactive: 0.01 | inactive: 0.001 | inactive: -0.066 | inactive: 0.049 | inactive: 0.068 | inactive: -0.009 | inactive: -0.017 | inactive: 0.012 | inactive: 0.045 | inactive: 0.005 | inactive: -0.001 | inactive: 0.013 | inactive: -0.013 | inactive: 0.007 | inactive: 0.024 | inactive: 0 | inactive: 0.006 | inactive: -0.011 | inactive: -0.01 |
| ATG5 (UniProt Q9H1Y0) | inactive: 0.009 | inactive: 0.025 | inactive: -0.006 | inactive: -0.033 | inactive: 0.056 | inactive: 0.001 | inactive: -0.008 | inactive: 0.005 | inactive: -0.009 | inactive: -0.02 | inactive: 0.011 | inactive: -0.024 | inactive: -0.011 | inactive: -0.063 | inactive: 0 | inactive: -0.009 | inactive: -0.013 | inactive: -0.01 | inactive: 0.006 | inactive: 0.017 |

Exported in CSV form: part of the list above
Target,log2 fold change [1],log2 fold change [2],log2 fold change [3],log2 fold change [4],log2 fold change [5],log2 fold change [6],log2 fold change [7],log2 fold change [8],log2 fold change [9],log2 fold change [10],log2 fold change [11],log2 fold change [12],log2 fold change [13],log2 fold change [14],log2 fold change [15],log2 fold change [16],log2 fold change [17],log2 fold change [18],log2 fold change [19],log2 fold change [20]
ATP1A4 (UniProt Q13733),inactive: -0.039,inactive: -0.007,inactive: 0.027,inactive: -0.034,inactive: 0.04,inactive: 0.022,inactive: -0.023,inactive: -0.017,inactive: 0.035,inactive: 0.028,inactive: -0.005,inactive: -0.014,inactive: -0.011,inactive: -0.008,inactive: 0.021,inactive: 0.064,inactive: 0.021,inactive: -0.036,inactive: -0.004,inactive: 0.006
ATP1B3 (UniProt P54709),inactive: -0.004,inactive: -0.018,inactive: 0.027,inactive: -0.028,inactive: 0.016,inactive: 0.031,inactive: -0.008,inactive: -0.009,inactive: 0.045,inactive: -0.032,inactive: 0.006,inactive: 0.005,inactive: 0.02,inactive: 0.019,inactive: -0.035,inactive: -0.005,inactive: 0.007,inactive: -0.004,inactive: -0.023,inactive: 0.017
